Structures can show the parent of a compound that is named as a salt. Some of the results follow. This data set is noisy: repeats of one test often differ as much as different tests do.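 ReNCell VM, a human fetal ventral-midbrain neural progenitor line, was differentiated without mitogens. Blinded raters scored images stained for doublecortin (early neurons) or tyrosine hydroxylase (dopaminergic neurons) against untreated wells (0 = no change). Scores were averaged across repeats and both raters, and compounds averaging 2 or more were selected as hits for retesting.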

This note sets out measurements from the supplement of paper PMC4635364.

The test system of test [1] is ReNCell VM. Briefly: neuronal differentiation score (DCX+ cell fraction vs untreated, manual image score) (score (-3 to 3)); higher = more neuronal differentiation. Conditions: 2 uM, 2 weeks.
In test [2] the test system is ReNCell VM. Briefly: dopaminergic neuron differentiation score (TH+ cell fraction vs untreated, manual image score) (score (0 to 3)); higher = more TH+ dopaminergic neuron differentiation. The following applies: 2 uM, 4 weeks, BDNF 10 ng/ml + GDNF 10 ng/ml.

In the case of `Cc1cc(/C=C/c2ccc3cc(N(C)C)ccc3[n+]2C)c(C)n1-c1ccccc1`, in test [1] (library: Spectrum), the neuronal differentiation score is inactive: 0. Moreover, the “dopaminergic neuron differentiation score” value in test [2] (library: Spectrum) was inactive: 0.

On to `COc1ccc(C(=O)c2ccc(O)cc2)c(O)c1O`, for which the neuronal differentiation score in test [1] (library: Spectrum) is inactive: 0. Also, the “dopaminergic neuron differentiation score” value in test [2] (library: Spectrum) was inactive: 0.

`Oc1ccc(C2CNCCc3c2cc(O)c(O)c3Cl)cc1` (centres undefined) [Fenoldopam bromide]: in test [1] (library: LOPAC), the neuronal differentiation score is inactive: 0. In test [2] (library: LOPAC), the “dopaminergic neuron differentiation score” value is inactive: 0.

For the compound `C1CCC(C(CC2CCCCN2)C2CCCCC2)CC1` (centres undefined), the neuronal differentiation score in test [1] (library: Spectrum) is inactive: 0. The “dopaminergic neuron differentiation score” value in test [2] (library: Spectrum) was inactive: 0.

Take `COC(=O)C1=C(C)NC(C)=C(C(=O)OCCN2CCN(C(c3ccccc3)c3ccccc3)CC2)C1c1cccc([N+](=O)[O-])c1` (centres undefined): the neuronal differentiation score in test [1] (library: Spectrum) was inactive: 0. In addition, the “dopaminergic neuron differentiation score” value in test [2] (library: Spectrum) is inactive: 0.

Turning to `CCCNC(C)C(=O)Nc1c(C)csc1C(=O)OC` (centres undefined) [Articaine hydrochloride], the neuronal differentiation score in test [1] (library: Prestwick) is inactive: 0. Moreover, the “dopaminergic neuron differentiation score” value in test [2] (library: Prestwick) was inactive: 0.

As for `NC(=O)Nc1sc(-c2ccc(F)cc2)cc1C(N)=O`, the neuronal differentiation score in test [1] (library: Tocriscreen) is inactive: 0. Also, the “dopaminergic neuron differentiation score” value in test [2] (library: Tocriscreen) was inactive: 0.

Consider `CCC(C)n1ncn(-c2ccc(N3CCN(c4ccc(OCC5COC(Cn6cncn6)(c6ccc(Cl)cc6Cl)O5)cc4)CC3)cc2)c1=O` (centres undefined), for which the neuronal differentiation score in test [1] (library: Spectrum) was inactive: 1. Also, the “dopaminergic neuron differentiation score” value in test [2] (library: Spectrum) was inactive: 1.

Consider `COC(=O)C1=C(C)NC(C)=C(C(=O)NCCCN2CCC(c3ccccc3)(c3ccccc3)CC2)C1c1ccc([N+](=O)[O-])cc1` (centres undefined), for which the neuronal differentiation score in test [1] (library: Tocriscreen) is inactive: 0. Besides, the “dopaminergic neuron differentiation score” value in test [2] (library: Tocriscreen) is inactive: 0.

Take `Clc1cc(Cl)c(OCC#CI)cc1Cl` [Haloprogin]: the neuronal differentiation score in test [1] (library: Prestwick) was inactive: 0. For the same compound, the “dopaminergic neuron differentiation score” value in test [2] (library: Prestwick) is inactive: 0.

Turning to `Cc1cccc2c3c(ccc12)C1=C(C(=O)C3=O)[C@@H](C)CO1`, the neuronal differentiation score in test [1] (library: Spectrum) is inactive: 0. For the same compound, the “dopaminergic neuron differentiation score” value in test [2] (library: Spectrum) was inactive: 0.

Take `O=C1C[C@@H](c2ccccc2)Oc2cc(O)cc(O)c21` [Pinocembrine]: the neuronal differentiation score in test [1] (library: Phytochemical) is inactive: 0. Moreover, the “dopaminergic neuron differentiation score” value in test [2] (library: Phytochemical) was inactive: 0.
